Measurements: PMC7979543
No constants are given. Whether binding was seen depends on the method and setting. In cells and extracts the contact can be indirect. Some results given as binding are weak or reduced against the parent protein; the word gives no strength.

The chains behind the UniProt entries cited, without tags or fusion partners. Where a name states a change or a piece, a line headed by the entry shows the natural chain unless it says otherwise.
UniProt Q9NZJ0: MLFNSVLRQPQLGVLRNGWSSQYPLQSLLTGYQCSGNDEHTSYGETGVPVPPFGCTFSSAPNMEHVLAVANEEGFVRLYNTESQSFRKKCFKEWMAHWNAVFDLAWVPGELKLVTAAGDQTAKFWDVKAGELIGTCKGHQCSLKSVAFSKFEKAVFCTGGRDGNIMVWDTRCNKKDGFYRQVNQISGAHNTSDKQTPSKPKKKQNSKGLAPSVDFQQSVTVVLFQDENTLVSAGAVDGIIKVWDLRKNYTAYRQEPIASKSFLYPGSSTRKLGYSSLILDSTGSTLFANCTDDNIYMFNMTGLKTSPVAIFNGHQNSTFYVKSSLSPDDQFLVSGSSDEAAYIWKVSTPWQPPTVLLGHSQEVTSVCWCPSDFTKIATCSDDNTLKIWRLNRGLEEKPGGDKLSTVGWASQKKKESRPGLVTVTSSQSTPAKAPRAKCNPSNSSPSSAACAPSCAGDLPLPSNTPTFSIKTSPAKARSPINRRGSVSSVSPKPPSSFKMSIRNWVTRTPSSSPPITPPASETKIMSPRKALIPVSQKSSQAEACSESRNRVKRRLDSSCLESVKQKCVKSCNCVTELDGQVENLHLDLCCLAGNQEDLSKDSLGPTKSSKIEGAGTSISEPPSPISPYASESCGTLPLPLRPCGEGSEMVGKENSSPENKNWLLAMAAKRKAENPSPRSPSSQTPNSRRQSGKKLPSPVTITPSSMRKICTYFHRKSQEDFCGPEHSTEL
UniProt P78527: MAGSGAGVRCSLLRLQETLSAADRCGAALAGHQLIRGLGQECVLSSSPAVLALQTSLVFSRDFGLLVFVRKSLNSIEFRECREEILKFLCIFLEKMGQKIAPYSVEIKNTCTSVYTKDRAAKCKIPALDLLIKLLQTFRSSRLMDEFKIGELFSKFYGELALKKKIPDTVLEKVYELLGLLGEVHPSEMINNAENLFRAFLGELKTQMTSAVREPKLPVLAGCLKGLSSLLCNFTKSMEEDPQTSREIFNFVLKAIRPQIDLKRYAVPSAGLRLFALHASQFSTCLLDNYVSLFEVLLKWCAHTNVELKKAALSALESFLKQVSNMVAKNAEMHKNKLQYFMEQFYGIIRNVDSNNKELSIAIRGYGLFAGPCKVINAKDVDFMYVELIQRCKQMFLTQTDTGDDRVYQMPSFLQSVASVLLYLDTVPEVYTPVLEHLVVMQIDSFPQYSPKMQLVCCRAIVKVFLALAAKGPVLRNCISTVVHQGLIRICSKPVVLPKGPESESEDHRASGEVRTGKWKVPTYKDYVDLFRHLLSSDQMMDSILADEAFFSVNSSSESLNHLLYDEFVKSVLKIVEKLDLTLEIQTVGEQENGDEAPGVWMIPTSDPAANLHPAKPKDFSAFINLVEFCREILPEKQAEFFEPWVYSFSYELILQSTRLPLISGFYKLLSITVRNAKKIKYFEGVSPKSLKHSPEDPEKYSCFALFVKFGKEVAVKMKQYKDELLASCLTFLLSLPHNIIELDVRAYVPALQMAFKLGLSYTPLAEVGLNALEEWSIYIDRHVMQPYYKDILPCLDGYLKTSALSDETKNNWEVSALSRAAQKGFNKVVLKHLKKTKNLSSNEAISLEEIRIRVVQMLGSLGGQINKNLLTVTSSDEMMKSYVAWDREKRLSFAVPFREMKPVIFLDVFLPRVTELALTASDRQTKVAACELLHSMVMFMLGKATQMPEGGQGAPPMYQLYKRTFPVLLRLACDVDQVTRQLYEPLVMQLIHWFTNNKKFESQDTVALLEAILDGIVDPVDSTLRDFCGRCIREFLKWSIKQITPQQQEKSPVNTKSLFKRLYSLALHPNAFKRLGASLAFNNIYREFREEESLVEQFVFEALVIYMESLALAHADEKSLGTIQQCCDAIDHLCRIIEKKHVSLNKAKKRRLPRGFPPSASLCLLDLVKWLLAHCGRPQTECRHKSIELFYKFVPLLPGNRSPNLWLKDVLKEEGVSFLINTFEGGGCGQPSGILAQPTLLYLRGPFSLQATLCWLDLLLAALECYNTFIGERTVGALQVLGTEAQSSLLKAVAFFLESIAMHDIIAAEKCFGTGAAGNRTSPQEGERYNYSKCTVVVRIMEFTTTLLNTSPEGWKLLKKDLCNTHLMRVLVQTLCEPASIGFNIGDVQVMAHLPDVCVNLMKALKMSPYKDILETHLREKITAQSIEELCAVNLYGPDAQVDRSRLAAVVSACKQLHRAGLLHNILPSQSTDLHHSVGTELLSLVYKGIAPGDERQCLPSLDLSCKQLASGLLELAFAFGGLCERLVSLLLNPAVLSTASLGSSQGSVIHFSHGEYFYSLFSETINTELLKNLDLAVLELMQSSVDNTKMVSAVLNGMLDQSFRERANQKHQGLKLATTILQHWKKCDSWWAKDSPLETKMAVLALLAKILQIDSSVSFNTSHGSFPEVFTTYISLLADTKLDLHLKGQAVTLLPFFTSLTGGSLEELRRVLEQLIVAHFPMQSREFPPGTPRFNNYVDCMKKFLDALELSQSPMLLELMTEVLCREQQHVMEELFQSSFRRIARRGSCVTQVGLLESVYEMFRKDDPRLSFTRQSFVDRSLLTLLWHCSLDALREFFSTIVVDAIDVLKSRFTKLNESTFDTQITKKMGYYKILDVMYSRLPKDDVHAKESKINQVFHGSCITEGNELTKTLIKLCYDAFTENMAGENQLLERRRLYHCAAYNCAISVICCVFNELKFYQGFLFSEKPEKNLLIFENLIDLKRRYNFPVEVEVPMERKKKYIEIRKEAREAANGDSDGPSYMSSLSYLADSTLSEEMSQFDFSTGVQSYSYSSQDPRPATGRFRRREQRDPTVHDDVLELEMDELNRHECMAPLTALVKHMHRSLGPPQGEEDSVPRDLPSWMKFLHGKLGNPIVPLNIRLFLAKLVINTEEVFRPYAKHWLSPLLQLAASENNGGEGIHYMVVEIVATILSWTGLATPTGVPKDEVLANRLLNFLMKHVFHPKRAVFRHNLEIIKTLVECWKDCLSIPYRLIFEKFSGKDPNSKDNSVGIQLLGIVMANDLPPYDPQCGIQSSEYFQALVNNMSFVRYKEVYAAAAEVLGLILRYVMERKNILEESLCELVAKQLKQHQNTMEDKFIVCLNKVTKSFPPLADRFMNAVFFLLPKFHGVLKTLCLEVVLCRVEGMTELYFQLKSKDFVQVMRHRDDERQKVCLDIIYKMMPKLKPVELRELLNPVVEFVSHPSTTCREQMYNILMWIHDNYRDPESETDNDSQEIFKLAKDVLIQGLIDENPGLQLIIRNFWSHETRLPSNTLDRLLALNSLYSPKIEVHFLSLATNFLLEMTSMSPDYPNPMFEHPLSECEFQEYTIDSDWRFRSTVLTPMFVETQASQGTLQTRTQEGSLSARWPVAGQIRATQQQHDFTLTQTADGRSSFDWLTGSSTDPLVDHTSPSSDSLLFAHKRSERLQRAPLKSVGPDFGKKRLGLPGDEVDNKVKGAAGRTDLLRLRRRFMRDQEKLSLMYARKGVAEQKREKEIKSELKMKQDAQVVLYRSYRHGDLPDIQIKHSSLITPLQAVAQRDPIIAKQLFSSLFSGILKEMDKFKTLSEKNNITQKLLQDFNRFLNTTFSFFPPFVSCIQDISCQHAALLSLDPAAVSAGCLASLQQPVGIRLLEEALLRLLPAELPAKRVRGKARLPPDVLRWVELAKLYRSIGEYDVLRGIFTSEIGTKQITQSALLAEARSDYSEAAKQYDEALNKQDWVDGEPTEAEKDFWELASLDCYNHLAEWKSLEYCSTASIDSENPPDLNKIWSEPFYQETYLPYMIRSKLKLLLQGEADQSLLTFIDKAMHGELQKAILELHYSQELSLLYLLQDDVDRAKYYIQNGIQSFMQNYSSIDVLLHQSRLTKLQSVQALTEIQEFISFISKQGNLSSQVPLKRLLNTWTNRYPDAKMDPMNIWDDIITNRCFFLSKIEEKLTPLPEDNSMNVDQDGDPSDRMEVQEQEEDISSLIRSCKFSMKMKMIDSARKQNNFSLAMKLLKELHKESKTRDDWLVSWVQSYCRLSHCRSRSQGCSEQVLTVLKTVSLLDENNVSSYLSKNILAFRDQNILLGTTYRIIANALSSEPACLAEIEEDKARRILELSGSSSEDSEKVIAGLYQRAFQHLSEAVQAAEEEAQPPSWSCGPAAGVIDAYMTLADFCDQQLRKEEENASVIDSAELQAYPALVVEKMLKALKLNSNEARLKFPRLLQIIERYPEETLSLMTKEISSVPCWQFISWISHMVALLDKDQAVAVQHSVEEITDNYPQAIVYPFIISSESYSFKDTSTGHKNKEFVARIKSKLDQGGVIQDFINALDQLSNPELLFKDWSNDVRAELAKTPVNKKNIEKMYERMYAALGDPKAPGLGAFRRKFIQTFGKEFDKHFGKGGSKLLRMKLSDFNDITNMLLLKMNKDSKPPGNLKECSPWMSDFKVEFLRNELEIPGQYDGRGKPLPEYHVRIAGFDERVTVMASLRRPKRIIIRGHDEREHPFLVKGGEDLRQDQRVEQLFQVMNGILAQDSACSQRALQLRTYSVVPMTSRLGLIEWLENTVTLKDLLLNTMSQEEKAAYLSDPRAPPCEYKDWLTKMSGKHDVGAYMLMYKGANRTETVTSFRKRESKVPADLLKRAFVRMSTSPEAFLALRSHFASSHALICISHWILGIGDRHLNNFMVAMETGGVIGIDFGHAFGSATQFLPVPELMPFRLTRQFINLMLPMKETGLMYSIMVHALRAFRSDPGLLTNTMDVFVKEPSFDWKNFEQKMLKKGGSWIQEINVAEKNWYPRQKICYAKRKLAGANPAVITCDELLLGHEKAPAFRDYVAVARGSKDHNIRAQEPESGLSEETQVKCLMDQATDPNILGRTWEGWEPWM
UniProt Q13619: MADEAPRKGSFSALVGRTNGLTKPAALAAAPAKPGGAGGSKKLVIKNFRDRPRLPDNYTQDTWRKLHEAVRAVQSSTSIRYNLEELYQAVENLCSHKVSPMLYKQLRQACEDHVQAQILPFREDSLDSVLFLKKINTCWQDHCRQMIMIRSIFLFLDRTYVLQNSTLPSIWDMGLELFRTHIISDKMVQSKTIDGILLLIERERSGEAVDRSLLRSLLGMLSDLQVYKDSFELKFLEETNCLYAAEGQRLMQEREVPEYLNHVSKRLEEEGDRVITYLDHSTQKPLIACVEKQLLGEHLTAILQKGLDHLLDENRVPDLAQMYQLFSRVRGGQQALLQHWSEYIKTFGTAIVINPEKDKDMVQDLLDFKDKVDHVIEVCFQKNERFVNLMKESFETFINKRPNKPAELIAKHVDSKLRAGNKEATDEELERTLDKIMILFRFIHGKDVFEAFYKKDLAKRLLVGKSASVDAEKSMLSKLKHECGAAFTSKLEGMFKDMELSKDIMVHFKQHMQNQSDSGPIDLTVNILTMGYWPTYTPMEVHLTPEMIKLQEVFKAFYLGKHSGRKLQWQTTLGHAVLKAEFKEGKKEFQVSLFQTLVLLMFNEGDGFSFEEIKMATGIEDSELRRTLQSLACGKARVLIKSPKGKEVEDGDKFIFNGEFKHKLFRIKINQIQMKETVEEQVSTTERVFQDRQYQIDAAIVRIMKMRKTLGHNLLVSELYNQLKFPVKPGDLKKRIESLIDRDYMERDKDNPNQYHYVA

Key:
DTL R171H = DTL R171H (UniProt Q9NZJ0); assay: co-IP; HEK293T transfected with Myc-CUL4A and Flag-DTL (Fig. 3A) or with DTL R171H / DTL R246H as indicated (Fig. 3H)
DTL R246H = DTL R246H (UniProt Q9NZJ0); assay: as above
Flag-DTL [1] = biological target: Flag-DTL (UniProt Q9NZJ0); assay: as above
Flag-DTL [2] = biological target: Flag-DTL (UniProt Q9NZJ0); assay: co-IP; HEK293T transfected with Flag-DTL, after IR (Fig. 3D); also after silencing of CUL4A expression (Fig. 3F, binding not affected)
Flag-DTL [3] = biological target: Flag-DTL (UniProt Q9NZJ0); assay: co-IP; as the co-IPs of transfected HEK293T cells, but a nuclease (Benzonase) added to the extracted protein lysate to digest DNA; in the presence or absence of DNA damage

Row | binding (DTL R171H) | binding (DTL R246H) | binding (Flag-DTL [1]) | binding (Flag-DTL [2]) | Substance | binding (Flag-DTL [3])
1 | binds | binds | binds | binds | DNA-PKcs (from UniProt P78527 1-4128) | binds
2 | binds |  | binds |  | Myc-CUL4A (from UniProt Q13619 1-759) | 
